Source: the supplement of paper PMC6078165
Values are relative to the signal before dosing, not to a vehicle control; the signal also falls without drug.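 Fibroblast labels denote human fibroblasts, mainly primary ones from uterus (C12385, HUF), lung (H6013), bone (Hs27A), adrenal (HADF) and skin (WS1), plus mammary HMF and breast cancer-associated Hs343T. Cancer cells are basal-like or mesenchymal-like triple-negative breast cancer lines. A hit is a response shift exceeding 3x replicate standard deviation. The tissue of the other fibroblasts is not given here.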

Test system: Hs578T
Assay: relative JC-1 red fluorescence (viability) vs pre-drug, coculture with fibroblast (fraction); higher = more viable cancer cells
Protocol: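 JC-1 labelled TNBC cells cocultured 1:1 (1,500 cells each) with CellTrace Violet stained primary or stromal fibroblasts in 384-well plates in FluoroBrite medium, treated with one of 42 anticancer drugs at 0.1, 1, 10 or 100 uM. JC-1 red fluorescence (mitochondrial integrity in cancer cells only) was read by plate reader every 8 h for 72 h. Values are normalised to each well's pre-drug value. The stock of one drug was tenfold lower, so its dose labels may be too high.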

CC(C)C[C@H](NC(=O)[C@@H](COC(C)(C)C)NC(=O)[C@H](Cc1ccc(O)cc1)NC(=O)[C@H](CO)NC(=O)[C@H](Cc1c[nH]c2ccccc12)NC(=O)[C@H](Cc1cnc[nH]1)NC(=O)[C@@H]1CCC(=O)N1)C(=O)N[C@@H](CCCNC(=N)N)C(=O)N1CCC[C@H]1C(=O)NNC(N)=O [Goserelin]
relative JC-1 red fluorescence
Details | 8 h | 16 h | 24 h | 32 h | 40 h | 48 h | 56 h | 64 h | 72 h
0.1 µM | 0.866 | 0.797 | 0.763 | 0.736 | 0.679 | 0.641 | 0.617 | 0.576 | 0.561
1 µM | 0.871 | 0.759 | 0.732 | 0.7 | 0.644 | 0.609 | 0.594 | 0.557 | 0.533

relative JC-1 red fluorescence
Details | 8 h | 16 h | 24 h | 32 h | 40 h | 48 h | 56 h | 64 h | 72 h
0.1 µM, coculture fibroblast: C12385 | 0.827 | 0.701 | 0.641 | 0.549 | 0.48 | 0.449 | 0.425 | 0.415 | 0.406
0.1 µM, coculture fibroblast: H6013 | 0.8222 | 0.766 | 0.7102 | 0.684 | 0.631 | 0.609 | 0.583 | 0.574 | 0.546
0.1 µM, coculture fibroblast: H6019 | 0.761 | 0.684 | 0.6693 | 0.5942 | 0.563 | 0.542 | 0.516 | 0.499 | 0.478
0.1 µM, coculture fibroblast: H6076 | 0.947 | 0.879 | 0.813 | 0.788 | 0.746 | 0.738 | 0.704 | 0.693 | 0.688
0.1 µM, coculture fibroblast: H6231 | 0.879 | 0.767 | 0.727 | 0.693 | 0.63 | 0.604 | 0.556 | 0.542 | 0.529
0.1 µM, coculture fibroblast: HADF | 0.843 | 0.746 | 0.66 | 0.598 | 0.5419 | 0.5112 | 0.48184 | 0.4741 | 0.4461
0.1 µM, coculture fibroblast: HCFa | 0.828 | 0.75 | 0.688 | 0.63 | 0.565 | 0.531 | 0.5 | 0.4739 | 0.4368
0.1 µM, coculture fibroblast: HCPF | 0.888 | 0.809 | 0.756 | 0.717 | 0.66 | 0.642 | 0.619 | 0.585 | 0.57
0.1 µM, coculture fibroblast: HHSteC | 0.8788 | 0.77433 | 0.7195 | 0.664 | 0.612 | 0.579 | 0.553 | 0.526 | 0.494
0.1 µM, coculture fibroblast: HMF | 0.886 | 0.797 | 0.747 | 0.724 | 0.667 | 0.638 | 0.603 | 0.587 | 0.573
0.1 µM, coculture fibroblast: HPFa | 0.90761 | 0.804 | 0.727 | 0.662 | 0.602 | 0.562 | 0.516 | 0.494 | 0.452
0.1 µM, coculture fibroblast: HUF | 0.865 | 0.719 | 0.696 | 0.587 | 0.525 | 0.489 | 0.454 | 0.4456 | 0.431
0.1 µM, coculture fibroblast: Hs27A | 0.8857 | 0.7754 | 0.7423 | 0.6916 | 0.6359 | 0.618 | 0.574 | 0.562 | 0.51
0.1 µM, coculture fibroblast: Hs343T | 0.938 | 0.823 | 0.729 | 0.696 | 0.619 | 0.581 | 0.5478 | 0.521 | 0.51
0.1 µM, coculture fibroblast: WS1 | 0.8603 | 0.755 | 0.684 | 0.602 | 0.537 | 0.506 | 0.466 | 0.448 | 0.438
1 µM, coculture fibroblast: C12385 | 0.834 | 0.734 | 0.6638 | 0.5698 | 0.508 | 0.465 | 0.435 | 0.421 | 0.414
1 µM, coculture fibroblast: H6013 | 0.9354 | 0.86 | 0.798 | 0.76 | 0.715 | 0.703 | 0.684 | 0.676 | 0.645
1 µM, coculture fibroblast: H6019 | 0.756 | 0.64867 | 0.651 | 0.557 | 0.52 | 0.498 | 0.471 | 0.447 | 0.418
1 µM, coculture fibroblast: H6076 | 0.8916 | 0.786 | 0.742 | 0.725 | 0.69 | 0.693 | 0.672 | 0.674 | 0.683
1 µM, coculture fibroblast: H6231 | 0.869 | 0.763 | 0.673 | 0.646 | 0.575 | 0.554 | 0.51 | 0.485 | 0.471
1 µM, coculture fibroblast: HADF | 0.9028 | 0.8273 | 0.762 | 0.728 | 0.702 | 0.694 | 0.661 | 0.657 | 0.633
1 µM, coculture fibroblast: HCFa | 0.865 | 0.758 | 0.7303 | 0.6798 | 0.619 | 0.599 | 0.565 | 0.548 | 0.507
1 µM, coculture fibroblast: HCPF | 0.885 | 0.773 | 0.7019 | 0.675 | 0.602 | 0.574 | 0.56 | 0.5236 | 0.5057
1 µM, coculture fibroblast: HHSteC | 0.9133 | 0.844 | 0.774 | 0.721 | 0.6721 | 0.631 | 0.6019 | 0.5771 | 0.53326
1 µM, coculture fibroblast: HMF | 0.828 | 0.703 | 0.649 | 0.634 | 0.568 | 0.532 | 0.498 | 0.482 | 0.466
1 µM, coculture fibroblast: HPFa | 0.9234 | 0.886 | 0.755 | 0.6768 | 0.611 | 0.563 | 0.505 | 0.479 | 0.427
1 µM, coculture fibroblast: HUF | 0.8511 | 0.747 | 0.675 | 0.5626 | 0.501 | 0.4647 | 0.4285 | 0.417 | 0.412
1 µM, coculture fibroblast: Hs27A | 0.8643 | 0.802 | 0.757 | 0.7141 | 0.661 | 0.643 | 0.598 | 0.579 | 0.529
1 µM, coculture fibroblast: Hs343T | 0.866 | 0.764 | 0.6765 | 0.6633 | 0.613 | 0.585 | 0.551 | 0.533 | 0.545
1 µM, coculture fibroblast: WS1 | 0.7987 | 0.7 | 0.628 | 0.5302 | 0.4709 | 0.461 | 0.433 | 0.434 | 0.435
